Laboratory results from article PMC11212424.
Results are given in words; binding and its absence hold for the method and conditions named. In cells and extracts the contact can be indirect. A result given as binding can be weak or reduced; the word gives no strength.

Molecular target: GST-WW (WW domain of YAP)
Experiment: pull-down; GST fusion proteins from E. coli held on glutathione-agarose beads, incubated 12 h with in vitro transcribed/translated product (rabbit reticulocyte lysate); western blot; only the target purified

binding: binds
B1: in vitro-translated Tudor-SN (protein, UniProt Q66X93 1-909)
chain: MASAQSSGSSGGPAVPTVQRGIVKMVLSGCAIIVRGQPRGGPPPERQINLSNIRAGNLARRAAATQPDGKDTPDEPWAFPAREFLRKKLIGKEVCFTIENKTPQGREYGMIYLGKDTNGENIAESLVAEGLASRREGMRANNPEQNRLSECEEQAKASKKGMWSEGNGSHTIRDLKYTIENPRHFVDSHHQKPVNAIIEHVRDGSVVRALLLPDHYLVTVMLSGIKCPTFRRETDGSETPEPFAAEAKFFTESRLLQRDVQIILESCHNQNILGTILHPNGNITELLLKEGFARCVDWSIAVYTRGAEKLRAAERFAKERRLRIWRDYVPPTANLDQKDKQFVAKVMQVLNADAIVVKLNSGDYKTIHLSSIRPPRLEGDNIQDKNKKLRPLYDIPYMFEAREFLRKKLIGKKVSVTVDYIRPASPATETVPAFSERTCATVTIGGINIAEALVSKGLATVIRYRQDDDQRSSHYDELLAAEARAIKNGKGLHSKKEVPIHRVADISGDTQKAKQFLPFLQRAGRSEAVVEYVFSGSRLKLYLPKETCLITFLLAGIECPRGARNLPGLVQEGEPFSEEATLFTKELVLQREVEVEVESMDKAGNFIGWLHMDGANLSVLLVEHALSKVHFTAERSAYYKPLLSAEEAAKQRKEKVWAHYEEQPVEEVMPVLEEKERSASYKPVFVTEITDDLHFYVQDVETGTQLEKLMENMRSDISSHPPVEGAYAPRRGEFCIAKFVDGEWYRARVEKVESPAKVHVFYIDYGNREILPSTRLGALPPAFSTRVLPAQATEYAFAFIQVPQDEDARTDAVDSVVRDIQNTQCLLNVEHLSASCPHVTLQFADSKGDVGLGLVKEGLVMVEVRKEKQFQKVITEYLNAQESAKSARLNLWRYGDFRADDADEFGYSR
